In publication PMC10726618:

B1: STEAP4, in HCC cells (Huh1) (protein, UniProt Q687X5 1-459)
chain: MEKTCIDALPLTMNSSEKQETVCIFGTGDFGRSLGLKMLQCGYSVVFGSRNPQKTTLLPSGAEVLSYSEAAKKSGIIIIAIHREHYDFLTELTEVLNGKILVDISNNLKINQYPESNAEYLAHLVPGAHVVKAFNTISAWALQSGALDASRQVFVCGNDSKAKQRVMDIVRNLGLTPMDQGSLMAAKEIEKYPLQLFPMWRFPFYLSAVLCVFLFFYCVIRDVIYPYVYEKKDNTFRMAISIPNRIFPITALTLLALVYLPGVIAAILQLYRGTKYRRFPDWLDHWMLCRKQLGLVALGFAFLHVLYTLVIPIRYYVRWRLGNLTVTQAILKKENPFSTSSAWLSDSYVALGILGFFLFVLLGITSLPSVSNAVNWREFRFVQSKLGYLTLILCTAHTLVYGGKRFLSPSNLRWYLPAAYVLGLIIPCTVLVIKFVLIMPCVDNTLTRIRQGWERNSKH
B2: PDK1 (protein, UniProt O15530 1-556)
chain: MARTTSQLYDAVPIQSSVVLCSCPSPSMVRTQTESSTPPGIPGGSRQGPAMDGTAAEPRPGAGSLQHAQPPPQPRKKRPEDFKFGKILGEGSFSTVVLARELATSREYAIKILEKRHIIKENKVPYVTRERDVMSRLDHPFFVKLYFTFQDDEKLYFGLSYAKNGELLKYIRKIGSFDETCTRFYTAEIVSALEYLHGKGIIHRDLKPENILLNEDMHIQITDFGTAKVLSPESKQARANSFVGTAQYVSPELLTEKSACKSSDLWALGCIIYQLVAGLPPFRAGNEYLIFQKIIKLEYDFPEKFFPKARDLVEKLLVLDATKRLGCEEMEGYGPLKAHPFFESVTWENLHQQTPPKLTAYLPAMSEDDEDCYGNYDNLLSQFGCMQVSSSSSSHSLSASDTGLPQRSGSNIEQYIHDLDSNSFELDLQFSEDEKRLLLEKQAGGNPWHQFVENNLILKMGPVDKRKGLFARRRQLLLTEGPHLYYVDPVNKVLKGEIPWSQELRPEAKNFKTFFVHTPNRTYYLMDPSGNAHKWCRKIQEVWRQRYQSHPDAAVQ

Target: AKT, in HCC cells (Huh1) (human (endogenous in Huh1))
Test: co-IP; co-IP in HCC cells (Huh1) with STEAP4 overexpression, empty vector, STEAP4 knockdown or scramble; PDK1 as positive control; which protein was precipitated is not told

Row | Binder | binding
1 | B1 | binds
2 | B2 | binds

These are yes or no findings as the source states them, for the method shown. In cells and extracts the contact can be indirect. A result given as binding can be weak or reduced; the word gives no strength.
